Data reported in paper PMC5668017.
No constants are given. Whether binding was seen depends on the method and setting. In cells and extracts the contact can be indirect. Some binding calls cover weakened binding; strength is not graded here.

Legend:
[1] = target: T1, c-Jun (human (endogenous in Hep-2)), P05412; experiment: co-IP; cells from Hep-2/R xenografts (LV-control or LV-miR-26b) of nude mice treated with cisplatin 2 mg/kg; settings: remark: other sources report otherwise
T1 chain: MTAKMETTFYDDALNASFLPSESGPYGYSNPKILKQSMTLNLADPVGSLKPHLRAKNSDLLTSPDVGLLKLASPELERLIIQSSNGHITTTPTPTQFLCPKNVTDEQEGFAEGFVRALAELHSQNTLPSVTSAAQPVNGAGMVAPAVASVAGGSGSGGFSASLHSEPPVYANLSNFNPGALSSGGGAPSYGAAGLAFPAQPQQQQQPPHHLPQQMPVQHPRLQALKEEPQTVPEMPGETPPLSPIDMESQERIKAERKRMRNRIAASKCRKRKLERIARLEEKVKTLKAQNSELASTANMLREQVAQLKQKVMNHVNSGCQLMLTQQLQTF

[2] = target: T1, c-Jun (human (endogenous in Hep-2)), …; experiment: co-IP; lysates (RIPA buffer) of cultured Hep-2 and Hep-2/R cells treated with 10 uM cisplatin, with or without transfection of miR-26b and ATF2 plasmid; c-Jun antibody at 4 °C overnight, protein G agarose beads, western blot; settings: remark: other sources report otherwise

binding [1]: binds
binding [2]: binds
B1: activating transcription factor 2 (ATF2), P15336 1-505 (protein)
chain: MKFKLHVNSARQYKDLWNMSDDKPFLCTAPGCGQRFTNEDHLAVHKHKHEMTLKFGPARNDSVIVADQTPTPTRFLKNCEEVGLFNELASPFENEFKKASEDDIKKMPLDLSPLATPIIRSKIEEPSVVETTHQDSPLPHPESTTSDEKEVPLAQTAQPTSAIVRPASLQVPNVLLTSSDSSVIIQQAVPSPTSSTVITQAPSSNRPIVPVPGPFPLLLHLPNGQTMPVAIPASITSSNVHVPAAVPLVRPVTMVPSVPGIPGPSSPQPVQSEAKMRLKAALTQQHPPVTNGDTVKGHGSGLVRTQSEESRPQSLQQPATSTTETPASPAHTTPQTQSTSGRRRRAANEDPDEKRRKFLERNRAAASRCRQKRKVWVQSLEKKAEDLSSLNGQLQSEVTLLRNEVAQLKQLLLAHKDCPVTAMQKKSGYHTADKDDSSEDISVPSSPHTEAIQHSSVSTSNGVSSTSKAEAVATSVLTQMADQSTEPALSQIVMAPSSQSQPSGS
